# Source: EP0497915B1, “hPTH (1-37) FRAGMENT, ITS PRODUCTION, DRUG CONTAINING IT AND ITS USE” (HaemoPep Pharma GmbH, priority 1989, dated 1991)
# At least one peptide structure holds a part that was inferred or is arguable (an end, a ring closure or a residue).
# Experiments:
# [1] = test system: Pulmonalarterien gegenüber der Arteria renalis; assay: Functional test: differential muscle contraction of pulmonary arteries versus renal artery; conditions: synthetic material
# [2] = test system: Phäochromozytomzellen (PC-12); assay: Intracellular cAMP level in PC-12 cells after stimulation with hPTH fragments (cAMP radioimmunoassay); type: cell-based, Ratte; conditions: 10^-11 to 10^-7 M peptide, 10^-4 M IBMX, compared with hPTH-(1-33) and hPTH-(1-38)
# [3] = Secondary structure by UV circular dichroism; type: physicochemical; conditions: 50 µg/ml peptide, 10 mM TRIS-HCl buffer pH 7,5, room temperature, 190-240 nm; evaluated after Reed and Kinzel
# [4] = test system: glatte Muskulatur der Lungengefasse; assay: Organ bath, force measurement: relaxation of precontracted smooth muscle of pulmonary vessels; parameters: species or system menschlichen Operationspräparaten und bei Kaninchen; conditions: after precontraction with contraction-activating substances; concentrations in the range of 10^-9 Mol
# [5] = test system: glatte Muskulatur des Corpus cavernosum; assay: Organ bath, force measurement: relaxation of precontracted smooth muscle of corpus cavernosum; parameters: species or system menschlichen Operationspräparaten und bei Kaninchen; conditions: after precontraction with contraction-activating substances; concentrations in the range of 10^-9 Mol
structure (smiles),measurement,setting,value
"CC[C@H](C)[C@H](NC(=O)[C@H](CCC(=O)O)NC(=O)[C@H](CO)NC(=O)[C@@H](NC(=O)[C@@H](N)CO)C(C)C)C(=O)N[C@@H](CCC(N)=O)C(=O)N[C@@H](CC(C)C)C(=O)N[C@@H](CCSC)C(=O)N[C@@H](Cc1c[nH]cn1)C(=O)N[C@@H](CC(N)=O)C(=O)N[C@@H](CC(C)C)C(=O)NCC(=O)N[C@@H](CCCCN)C(=O)N[C@@H](Cc1c[nH]cn1)C(=O)N[C@@H](CC(C)C)C(=O)N[C@@H](CC(N)=O)C(=O)N[C@@H](CO)C(=O)N[C@@H](CCSC)C(=O)N[C@@H](CCC(=O)O)C(=O)N[C@@H](CCCNC(=N)N)C(=O)N[C@H](C(=O)N[C@@H](CCC(=O)O)C(=O)N[C@@H](Cc1c[nH]c2ccccc12)C(=O)N[C@@H](CC(C)C)C(=O)N[C@@H](CCCNC(=N)N)C(=O)N[C@@H](CCCCN)C(=O)N[C@@H](CCCCN)C(=O)N[C@@H](CC(C)C)C(=O)N[C@@H](CCC(N)=O)C(=O)N[C@@H](CC(=O)O)C(=O)N[C@H](C(=O)N[C@@H](Cc1c[nH]cn1)C(=O)N[C@@H](CC(N)=O)C(=O)N[C@@H](Cc1ccccc1)C(=O)N[C@H](C(=O)N[C@@H](C)C(=O)N[C@@H](CC(C)C)C(=O)O)C(C)C)C(C)C)C(C)C [hPTH-(1-37), hPTH-Fragment-(1-37)]",biologische Aktivität im Funktionstest (differentielle Muskelkontraktion),[1],korrekte biologische Aktivität
same,Wirksamkeit (intrazellulärer cAMP-Spiegel) im Vergleich zu anderen PTH-Peptiden,[2],signifikante Unterschiede in der Wirksamkeit
same,α-Helix-Anteil,[3],40-45%
same,Relaxation der glatten Muskulatur der Lungengefasse,[4],deutliche Relaxation
same,Relaxation der glatten Muskulatur des Corpus cavernosum,[5],deutliche Relaxation
